Reference: PMC7862700
The entries are a selection whose mix differs from that of the whole data set. For some of these results: At the low end of the ranking the order means little. Some of the results follow. For some of these results: Construct or isoform of the protein are uncertain.

By UniProt entry, the sequences of proteins in these tests, tags left out. Where a name states a change or a piece, a line headed by the entry shows the natural chain unless it says otherwise.
UniProt Q00613: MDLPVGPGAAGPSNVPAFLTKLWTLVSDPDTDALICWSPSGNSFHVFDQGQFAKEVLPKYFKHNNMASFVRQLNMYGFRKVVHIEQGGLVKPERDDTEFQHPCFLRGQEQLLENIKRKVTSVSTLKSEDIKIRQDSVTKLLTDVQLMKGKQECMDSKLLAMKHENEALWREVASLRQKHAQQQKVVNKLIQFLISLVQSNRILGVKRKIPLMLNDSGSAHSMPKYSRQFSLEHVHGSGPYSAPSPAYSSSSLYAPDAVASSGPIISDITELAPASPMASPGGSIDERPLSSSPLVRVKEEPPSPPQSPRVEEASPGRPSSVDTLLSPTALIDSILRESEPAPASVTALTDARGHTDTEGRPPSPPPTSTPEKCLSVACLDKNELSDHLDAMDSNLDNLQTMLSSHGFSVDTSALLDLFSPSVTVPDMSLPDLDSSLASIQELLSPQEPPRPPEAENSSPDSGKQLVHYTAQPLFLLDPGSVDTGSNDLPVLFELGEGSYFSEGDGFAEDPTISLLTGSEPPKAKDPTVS

Assays:
[1] = target: HSF1 (UniProt Q00613); test: DAPPL (digital affinity profiling via proximity ligation, sequencing); details: 10 mM Tris-HCl pH 7.5, 50 mM NaCl, 1 mM DTT, 4% glycerol, room temperature, 30 min; GST-TFs on glutathione beads, 16-mer random dsDNA library, 0.1% …; high values mean tight binding; double strand, one strand shown; scale: fold enrichment (6-mer frequency, TF over GST control)
[2] = target: T1, ELF2 (UniProt Q15723); test: as above; details: 10 mM Tris-HCl pH 7.5, 50 mM NaCl, 1 mM DTT, 4% glycerol, room temperature, 30 min; GST-TFs on glutathione beads, 16-mer random dsDNA library, 0.1% …; high values mean tight binding; double strand, one strand shown; scale: fold enrichment (6-mer frequency, TF over GST control)
T1 sequence: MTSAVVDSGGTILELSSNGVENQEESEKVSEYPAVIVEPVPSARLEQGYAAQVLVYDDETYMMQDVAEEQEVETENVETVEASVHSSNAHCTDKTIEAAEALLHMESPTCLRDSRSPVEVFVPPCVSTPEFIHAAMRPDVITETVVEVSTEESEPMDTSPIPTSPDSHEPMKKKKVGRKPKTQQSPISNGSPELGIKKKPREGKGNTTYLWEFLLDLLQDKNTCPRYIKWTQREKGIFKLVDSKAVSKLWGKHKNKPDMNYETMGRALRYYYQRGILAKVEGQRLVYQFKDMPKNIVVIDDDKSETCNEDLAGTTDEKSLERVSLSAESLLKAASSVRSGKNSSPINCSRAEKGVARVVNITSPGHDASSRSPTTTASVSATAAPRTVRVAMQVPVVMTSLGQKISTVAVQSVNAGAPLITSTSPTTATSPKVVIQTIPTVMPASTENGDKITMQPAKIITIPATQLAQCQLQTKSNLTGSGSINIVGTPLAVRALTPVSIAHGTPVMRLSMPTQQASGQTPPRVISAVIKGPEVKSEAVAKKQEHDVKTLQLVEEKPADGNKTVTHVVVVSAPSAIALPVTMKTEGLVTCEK

Sequence | binding signal [1] | binding signal [2]
AGCGGA | 0.473 | 0.991
TTGAGT | 0.622 | 0.649
CGGGGG | 0.385 | 0.431
ACAGTA | 0.798 | 0.874
GGCAGA | 0.603 | 0.601
ACCAGT | 0.456 | 0.438
GAGTGC | 0.573 | 0.664
TCAGCG | 0.655 | 0.787
GCAGGA | 0.604 | 0.905
AGGTTA | 0.825 | 0.769
GAACGG | 0.552 | 0.605
GAGCAC | 0.636 | 0.7
GGTAGG | 0.553 | 0.651
AGTCAG | 0.42 | 0.507
CGCAGC | 0.634 | 0.783
GCCGGG | 0.346 | 0.364
AGTAGG | 0.567 | 0.724
ATGAGA | 0.927 | 0.788
TCGGTA | 0.591 | 0.559
GCGGTG | 0.42 | 0.517
TCGGTG | 0.486 | 0.527

Sequence | binding signal [1] | binding signal [2]
GGGAGC | 0.353 | 0.369
GGGAAC | 0.702 | 0.653
GCATAG | 0.773 | 0.813
GATCAG | 0.866 | 0.699
CGCAAG | 0.795 | 0.79
GGGAGT | 0.209 | 0.235
ACGTGA | 0.261 | 0.246
AACCAG | 0.852 | 0.885
CGAGAC | 0.679 | 0.515
CTAGAG | 1.58 | 0.814
GATTGT | 0.971 | 0.778
GCAGGC | 0.528 | 0.711
CCGTTG | 0.704 | 0.839
GTCGCA | 0.558 | 0.7
CAGGAC | 0.599 | 0.766
GGACCG | 0.581 | 0.822
TAGGCG | 0.649 | 0.618
AGTTCG | 0.844 | 0.714
GTACCG | 0.546 | 0.814
GGGCCA | 0.554 | 0.641
